{"source": "patent US10988457B2", "about": "“TLR inhibitors” (Insilico Medicine IP Limited, priority 2019, dated 2021)", "key": {"TLR7/8 [1]": {"system": "TLR7/8", "experiment": "TLR7/8 Inhibition Assay IC50 in human PBMC's, cytokine release after CL075 stimulation (Luminex)", "type": "cell-based", "conditions": "positive control 2 μg/mL, 24 hours", "description": "Cryopreserved human PBMC's were drip-thawed. Cells were diluted to the appropriate density (1×10^5 per well) and seeded into 96-well polypropylene plates with 150 μL per well of culture medium (RPMI 1640, 10% heat-inactivated FBS, 1% penicillin/streptomycin, 2 mM L-glutamine) for compound test wells. […] The positive controls, CL075 were resuspended in endotoxin-free water at 1 mg/mL to make working stock solutions.\nAfter the 1-hour incubation, 40 μL appropriate diluted working stock TLR 7/8 ligands were added to the test and reference compound wells, respectively to give final assay volumes of 200 μL. Controls were added to the PBMC's in volumes of 40 μL of diluted working stock, followed by addition of 10 μL of appropriately diluted vehicle, to mimic compound addition, to give final assay volumes of 200 μL. Consequently, the final DMSO vehicle concentration in the assay was from 1 to 0.5%. The control CL075 was used at 2 μg/mL.\nThan plates were centrifuged at 200×g for 10 minutes. […] Cytokine levels in each sample were determined using Luminex methodology, per the manufacturer's protocol.\nThe interpolated data were then normalized to the vehicle or unstimulated control.\nOutlier calculation was performed using the Grubbs maximum normed residual test.\nEight test compounds were evaluated for their ability to inhibit the TLR7/8 in PBMC's from one human donor following incubation of 24 hours."}, "TLR7/8 [2]": {"system": "TLR7/8", "conditions": "24 hours", "description": "Namely, in the present experiment their ability was evaluated to inhibit TLR7/8 in human PBMC's, as measured by the release of specific cytokines. The following cytokines were measured for a complete cytokine response profile (no dilution of samples): IL-1β, IL-6, IL-12p40, TNFα and IFNα.\nLevels of each cytokine induction were interpolated from standard curves using a 5-parameter non-linear regression analysis, where y=(A+((B−A)/(1+(((B−E)/(E−A))*((x/C)^D))))). The interpolated data were then normalized to the vehicle control. Percent of control (PoC) was also calculated using the formula, PoC=(test sample/positive vehicle control)×100.\nCryopreserved human PBMC's were drip-thawed. Cells were diluted to the appropriate density (1×10^5 per well) and seeded into 96-well polypropylene plates with 150 μL per well of culture medium (RPMI 1640, 10% heat-inactivated Fetal Bovine Serum (FBS), 1% penicillin/streptomycin, 2 mM L-glutamine) for compound test wells. For the control wells, cells (1×10^5 per well) were plated in 150 μL per well of culture medium.\nCells were incubated at 37° C., 5% CO2 for 1 hour prior to the addition of test compounds or controls.\nTest compounds were solubilized in DMSO to make 20× stock solutions, then diluted further with cell culture medium.\nTest compounds were added to the PBMC's in volumes of 10 μL and incubated for 1 hour at 37° C., 5% CO2. Compounds were tested in duplicates at final assay concentrations of 10 μM.\nPlates were incubated at 37° C., 5% CO2 for 24 hours. Plates were centrifuged at 200×g for 10 minutes. Cell culture supernatants were collected and stored at −80° C. until needed for analysis.\nHarvested cell culture supernatants were measured for IL-1β, IL-6, IL-12p40, TNFα and IFNα release to assess dual TLR7/8 inhibition."}, "[3]": {"conditions": "positive control CL075 2 μg/mL alone, defines 100 % of control, human PBMC's"}}, "note": "Where two headings read alike, the source gives them in different places.", "data": [{"compound": "CCCc1nc2c(N)nc3ccccc3c2s1", "note": "[CL075]", "values": [{"measurement": "stimulation of cytokine release from human PBMC's (in words)", "setting": "TLR7/8 [1]", "value": "stimulated the release of appropriate cytokines"}, {"measurement": "stimulation of cytokine release from human PBMC's (in words)", "setting": "TLR7/8 [2]; positive control 2 μg/mL", "value": "stimulated the release of appropriate cytokines"}, {"measurement": "TLR7/8 Inhibition, IFNα (POC %)", "setting": "TLR7/8 [2]; [3]", "value": 100, "unit": "%"}, {"measurement": "TLR7/8 Inhibition, IL-1β (POC %)", "setting": "TLR7/8 [2]; [3]", "value": 100, "unit": "%"}, {"measurement": "TLR7/8 Inhibition, IL-6 (POC %)", "setting": "TLR7/8 [2]; [3]", "value": 100, "unit": "%"}, {"measurement": "TLR7/8 Inhibition, IL-12p40 (POC %)", "setting": "TLR7/8 [2]; [3]", "value": 100, "unit": "%"}, {"measurement": "TLR7/8 Inhibition, TNFα (POC %)", "setting": "TLR7/8 [2]; [3]", "value": 100, "unit": "%"}]}]}
